This is an account of results in the supplement of paper PMC8256030.

Structures are written as SMILES. “And” between values parts separate entries of the source, which are not always exact repeats. Equal entries are not always repeated. This is one part of the list. Single values are uncertain here, since repeats match poorly.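 HEK293T cells were given each compound shortly before transfection with a reporter in which red mCherry is followed by the SARS-CoV-2 frameshift element and then GFP in the −1 frame, so GFP appears only after frameshifting.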

This assay concerns HEK293T. The experiment in a line: percent viability (nuclei count) relative to control; higher = more viable cells. To be noted: 10 µM; 24 h.
Consider `COC1=CC(=O)C[C@@H](C)[C@]12Oc1c(Cl)c(OC)cc(OC)c1C2=O`, for which the percent viability was 168%. With `COCCCOc1cc(C[C@@H](C[C@H](N)[C@@H](O)C[C@H](C(=O)NCC(C)(C)C(N)=O)C(C)C)C(C)C)ccc1OC` [aliskiren] the figure was 205%; with `NS(=O)(=O)c1cc(C(=O)O)cc(N2CCCC2)c1Oc1ccccc1` [piretanide], 103%. Turning to `CNCCCC1c2ccccc2C=Cc2ccccc21`, the percent viability turned out to be 331%.

Turning to `O=[N+]([O-])c1ccc(/C=N/O)o1` [nifuroxime], the percent viability was 232%. For the compound `CCCCC[C@H](O)/C=C/[C@H]1[C@H](O)CC(=O)[C@@H]1CCCCCCC(=O)O` [Alprostadil], the percent viability was 201%. In the case of `CN1CCN(CCCN2c3ccccc3Sc3ccc(Cl)cc32)CC1` [prochlorperazine] it was 360%. In the case of `C#C[C@]1(O)CC[C@H]2[C@@H]3CCC4=CC(=O)CC[C@@H]4[C@H]3CC[C@@]21CC` [levonorgestrel], the percent viability was 260% and 144%. With `O=C(O)c1cc(O)c2c(c1)C(C1c3cc(C(=O)O)cc(O)c3C(=O)c3c(OC4OC(CO)C(O)C(O)C4O)cccc31)c1cccc(OC3OC(CO)C(O)C(O)C3O)c1C2=O` (stereo not given) the figure was 215%; with `CC1(C)S[C@@H]2[C@H](NC(=O)C(C(=O)Oc3ccc4c(c3)CCC4)c3ccccc3)C(=O)N2[C@H]1C(=O)O` (stereo not given in full) [carindacillin], 131%. `O=C1NCC2(CCN(CCc3ccccc3)CC2)O1`: the percent viability was found to be 205%. With `C[C@@H](O)[C@H]1C(=O)N2C(C(=O)O)=C(S[C@@H]3CN[C@H](C(=O)N(C)C)C3)[C@H](C)[C@H]12` the figure was 159%; with `C[C@H](N[C@@H](CCc1ccccc1)C(=O)O)C(=O)N1CCC[C@H]1C(=O)O` [enalaprilat], 112% and 221%. For `C#C[C@]1(O)CC[C@H]2[C@@H]3CCC4=C(CCC(=O)C4)[C@H]3CC[C@@]21C`, the percent viability came to 298%. Consider `CC(=O)OCC(=O)[C@@]1(O)CC[C@H]2[C@@H]3CCC4=CC(=O)CC[C@]4(C)[C@@]3(F)[C@@H](O)C[C@@]21C`, for which the percent viability was 126%. With `Cc1oc2nc3c(c(NC(=O)CN4CCCC4=O)c2c1C)CCCC3` [coluracetam] the figure was 227%. In the case of `CC(=O)NO` [acetohydroxamic acid] it was 211%; in that of `C[N+](C)(CCOc1ccccc1)Cc1ccccc1.O=C([O-])c1cc2ccccc2cc1O` [bephenium hydroxynaphthoate], 52.5%; in that of `CC(C(=O)O)c1cccc(Oc2ccccc2)c1` (stereo not given) [fenoprofen], 162% and 229%.

As to `N[C@@H]1CONC1=O` [cycloserine], the percent viability is 161%. `CC(=O)Nc1ccc(OC(=O)c2ccccc2O)cc1` [acetaminosalol]: the percent viability came to 328%. Turning to `Oc1ccc(C2CNCCc3c2cc(O)c(O)c3Cl)cc1` (stereo not given), the percent viability worked out at 67.5%. With `N/N=c1\[nH][nH]/c(=N\N)c2ccccc12` [dihydralazine], the percent viability was determined as 223%. With `CCC(=O)O[C@H]1[C@H](O[C@@H]2[C@@H](C)[C@H](O[C@H]3C[C@@](C)(OC)[C@@H](O)[C@H](C)O3)[C@@H](C)C(=O)O[C@H](CC)[C@@](C)(O)[C@H](O)[C@@H](C)C(=O)[C@H](C)C[C@@]2(C)O)O[C@H](C)C[C@@H]1N(C)C` the figure was 283%.

For `CNC[C@H](O)c1ccc(O)c(O)c1`, the percent viability came out at 119%. With `CN(C)c1ccc2nc3ccc(=[N+](C)C)cc-3sc2c1` the figure was 236%; with `c1ccc(CC2=NCCN2)cc1` [tolazoline], 94.4%. `CC[C@]12CN3CCc4c([nH]c5ccccc45)[C@@](C(=O)OC)(c4cc5c(cc4OC)N(C)[C@H]4[C@@](O)(C(=O)OC)[C@H](OC(C)=O)[C@]6(CC)C=CCN7CC[C@]54[C@@H]76)C[C@@H](C3)[C@H]1O2` [vinleurosine]: the percent viability amounted to 15.9%. In the case of `CC(C)(C)CC(C)(C)c1cc(Cc2cc(C(C)(C)CC(C)(C)C)cc(-n3nc4ccccc4n3)c2O)c(O)c(-n2nc3ccccc3n2)c1` [bisoctrizole] it was 137%.

As to `CN1CCC[C@H]1c1cccnc1`, the percent viability was 168%. Consider `O=C(NCc1ccccc1)OCCO` [buramate], for which the percent viability amounted to 128%.

For `CC[C@H](NC(=O)c1c(O)c(-c2ccccc2)nc2ccccc12)c1ccccc1` [talnetant], the percent viability worked out at 121%. As for `COC(=O)[C@H](Cc1ccccc1)NC(=O)[C@@H](N)CC(=O)O`, the percent viability is 262%.

`CCN1C(=CC=Cc2ccc3ccccc3[n+]2CC)C=Cc2ccccc21` [quinaldine blue]: the percent viability was determined as 56.2%. With `NC(=O)c1cccnc1` [nicotinamide] the figure was 378%; with `Cn1c2ncnc-2c(O)n(C)c1=O` [Oxtriphylline], 239%; with `c1ccc([C@H]2CN3CCSC3=N2)cc1`, 147%. Regarding `O=C(NCCN1CCN(c2ncccn2)CC1)C12CC3CC(CC(C3)C1)C2` [adatanserin], the percent viability came to 123%. For `OCCN1CCN(CCCN2c3ccccc3Sc3ccc(Cl)cc32)CC1` [perphenazine], the percent viability amounted to 423%. With `COC(=O)[C@H](c1ccccc1Cl)N1CCc2sccc2C1` [clopidogrel] the figure was 191% and 212%.
